Here are results for three substances from article PMC12356253.

The chains behind the UniProt entries cited, without tags or fusion partners. Residues count along the entry.
UniProt P31040, residues 43-664: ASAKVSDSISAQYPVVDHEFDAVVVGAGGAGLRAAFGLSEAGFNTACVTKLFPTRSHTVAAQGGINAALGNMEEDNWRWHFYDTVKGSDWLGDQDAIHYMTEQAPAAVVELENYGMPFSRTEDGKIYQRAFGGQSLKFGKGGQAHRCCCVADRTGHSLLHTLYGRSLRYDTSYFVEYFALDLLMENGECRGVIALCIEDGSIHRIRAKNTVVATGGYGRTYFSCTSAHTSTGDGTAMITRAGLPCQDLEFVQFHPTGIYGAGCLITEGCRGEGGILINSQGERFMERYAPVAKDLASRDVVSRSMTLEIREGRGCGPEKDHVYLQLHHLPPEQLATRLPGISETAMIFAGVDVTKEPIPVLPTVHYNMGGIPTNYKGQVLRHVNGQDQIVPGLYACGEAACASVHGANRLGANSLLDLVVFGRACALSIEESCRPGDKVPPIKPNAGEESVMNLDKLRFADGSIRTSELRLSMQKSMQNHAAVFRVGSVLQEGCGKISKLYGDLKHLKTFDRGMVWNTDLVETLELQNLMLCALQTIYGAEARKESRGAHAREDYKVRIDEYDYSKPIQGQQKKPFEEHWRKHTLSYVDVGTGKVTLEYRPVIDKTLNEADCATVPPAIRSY

These are yes or no findings as the source states them, for the method shown. Binding seen in cells or lysates may run through a third protein. Here binding means that the protein was enriched with, or labelled near, the bait; the list need not be complete. Tags and fused reporters may be left off the sequences shown.

The target of one test is T1, SDHAF2^FLAG (human) (UniProt Q9NX18).
T1 sequence: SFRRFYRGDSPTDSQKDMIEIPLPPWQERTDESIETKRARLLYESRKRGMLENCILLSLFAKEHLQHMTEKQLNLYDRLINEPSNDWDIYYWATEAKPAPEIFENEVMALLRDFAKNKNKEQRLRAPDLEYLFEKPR
The test is described as follows: affinity purification with mass spectrometry; IPMS: cells solubilised in 20 mM tris-Cl pH 7.4, 50 mM NaCl, 10% glycerol, 0.1 mM EDTA, 1% digitonin, benzonase; FLAG beads, 2 hours at 4°C; eluted with FLAG peptide; LC-MS/MS; for SDHAF2^FLAG also at increasing concentrations of doxycycline.

A further test addresses T2, SDHB^FLAG (UniProt P21912).
T2 sequence: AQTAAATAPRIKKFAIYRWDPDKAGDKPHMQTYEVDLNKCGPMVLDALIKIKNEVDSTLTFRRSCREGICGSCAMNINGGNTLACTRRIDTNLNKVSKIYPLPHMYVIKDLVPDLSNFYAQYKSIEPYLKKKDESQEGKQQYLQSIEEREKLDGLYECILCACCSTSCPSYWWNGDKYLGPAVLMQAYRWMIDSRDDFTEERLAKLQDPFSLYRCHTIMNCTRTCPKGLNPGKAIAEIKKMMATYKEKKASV
The description is as above.

With SDHA (from UniProt P31040 43-664), the binding result with SDHAF2^FLAG (human) is listed as “binds”.

As for “flavinated-SDHA (from UniProt P31040 43-664)”, the binding result in the test with SDHB^FLAG and in the test with SDHAF2^FLAG (human) was “binds” each time.

As for “unmodified SDHA (from UniProt P31040 43-664)”, the binding result with SDHAF2^FLAG (human) is recorded as “binds”.
